Test results published in publication PMC8163507, “PHAROH lncRNA regulates Myc translation in hepatocellular carcinoma via sequestering TIAR”.
For at least one entry, the source does not settle the construct or the ends of the probe. The comparison behind a weaker result is the experiment's own reference, which may not be listed here. Protein sequences can lack the tags named with them.

Assays:
[1] = target: T1, TIAR (nucleolysin TIAR, TIAL-1) (human) (UniProt Q01085); assay: EMSA; conditions: EMSA: ~2 fmol probe in 20 ul, 10 mM HEPES pH 7.3, 20 mM KCl, 1 mM MgCl2 (printed Mg2Cl2), 1 mM DTT, 30 ng/ul BSA, 0.01% NP-40, 5% glycerol, room temperature 30 min, commercial protein
T1 sequence (looked up, limits assumed): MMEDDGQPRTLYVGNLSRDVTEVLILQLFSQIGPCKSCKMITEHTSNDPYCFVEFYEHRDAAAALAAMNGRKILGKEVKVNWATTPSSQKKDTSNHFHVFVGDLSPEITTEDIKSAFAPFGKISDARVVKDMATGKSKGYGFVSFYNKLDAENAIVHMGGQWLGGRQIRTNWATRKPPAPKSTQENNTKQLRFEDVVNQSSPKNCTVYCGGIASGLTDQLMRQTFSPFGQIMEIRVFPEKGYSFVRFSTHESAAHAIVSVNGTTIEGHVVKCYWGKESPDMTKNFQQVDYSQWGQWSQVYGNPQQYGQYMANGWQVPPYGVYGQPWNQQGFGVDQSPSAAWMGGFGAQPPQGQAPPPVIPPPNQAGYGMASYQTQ

[2] = target: T1, TIAR (nucleolysin TIAR, TIAL-1) (human); assay: competition with a labelled probe; conditions: competes with N6 only slightly, at 10:1; EMSA: ~2 fmol probe in 20 ul, 10 mM HEPES pH 7.3, 20 mM KCl, 1 mM MgCl2 (printed Mg2Cl2), 1 mM DTT, 30 ng/ul BSA, 0.01% NP-40, 5% glycerol, room temperature 30 min; commercial protein; label: 3' biotin (competitor in Fig 7C)

“GAGAGGAUGCCACUGUCUCGAACUACUCUGAAGGCACAGCCACCAGAGCCUUAGGGACAGGGUAUCCUAUC [PHAROH hairpin m4]”: binds more weakly ([1]; minimal binding, nearly abolished, label: 3' biotin (competitor in Fig 7C)); binds more weakly [2].
“GAGAGGAUGCCACUGUCUCGAACUACUCUGAAGGCACAGCCACCAGAGCCUUAGGGACAGGGUAUUUUAUC [PHAROH hairpin m3]”: binds more weakly ([1]; similar to m2, label: 3' biotin).
“GAGAGGAUGCCACUGUCUCGAACUACUCUGAAGGCACAGCCACCAGAGCUUUAGGGACAGGGUAUUUUAUC [PHAROH hairpin m2]”: binds more weakly ([1]; greatly reduced, two bands, label: 3' biotin).
“GAGAGGAUGCCACUGUCUCGAACUAUUUUGAAGGCACAGCCACCAGAGCUUUAGGGACAGGGUAUUUUAUC [PHAROH hairpin m1]”: binds more weakly ([1]; slightly reduced, prefers one and two copies, label: 3' biotin).
